Results from article PMC4089482, “Bacterial periplasmic sialic acid-binding proteins exhibit a conserved binding site” (Acta Crystallographica Section D: Biological Crystallography, 2014).
These are yes or no findings as the source states them, for the method shown.

By UniProt entry, the sequences of proteins in these tests, tags left out. Residues count along the entry.
UniProt Q9KR64, residues 23-321: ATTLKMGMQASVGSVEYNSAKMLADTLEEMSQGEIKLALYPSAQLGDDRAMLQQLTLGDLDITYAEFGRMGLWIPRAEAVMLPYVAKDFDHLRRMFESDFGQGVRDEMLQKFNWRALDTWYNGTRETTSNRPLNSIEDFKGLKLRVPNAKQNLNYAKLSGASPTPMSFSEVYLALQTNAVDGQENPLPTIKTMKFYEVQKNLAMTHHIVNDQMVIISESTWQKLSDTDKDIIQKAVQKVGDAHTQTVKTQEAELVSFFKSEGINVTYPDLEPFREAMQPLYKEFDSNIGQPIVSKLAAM

Biological target: Vibrio cholerae sialic acid-binding periplasmic protein SiaP (Vc-SiaP) (V. cholerae) (UniProt Q9KR64)
Experiment: SEC; both purified

Substance: Vibrio cholerae sialic acid-binding periplasmic protein SiaP (Vc-SiaP) (from UniProt Q9KR64 23-321)
- binding: no binding
